According to patent US20030119072A1:
No constants are given. Whether binding was seen depends on the method and setting. Some entries that bind do so weakly or less than the wild type.

B1: Smad6 PY motif peptide … (peptide)
peptide: GPESPPPPYSRLSP
modifications: biotinylated (C6-linker and biotin tag)
B2: WBP1 PY motif peptide, Biotin-Ahx-…-CONH2 (peptide)
peptide: HPGTPPPPYTVGPG
modifications: N-terminal Biotin-Ahx; C-terminal amide (CONH2)
B3: Smad5 PY motif peptide … (peptide)
peptide: PADTPPPAYMPPDD
modifications: biotinylated (C6-linker and biotin tag)

Experiments:
GST-WWP1.1 [1] = test: TRF (DELFIA) plate assay, GST-WW domain coated at 30 µg/mL, titrated with biotinylated peptide
GST-WWP1.1 [2] = test: TRF (DELFIA) plate assay, GST-WW domain coated at 0-10 µg/mL, biotinylated peptide 30 µM

| Binder | binding (GST-WWP1.1 [1]) | binding (GST-WWP1.1 [2]) |
| --- | --- | --- |
| B1 | binds |  |
| B2 |  | binds |
| B3 | binds |  |
